The other results are listed elsewhere or left out.

In PMC7819943, “Rice protein-binding microarrays: a tool to detect cis-acting elements near promoter regions in rice” one finds binding signal data, which are given here for 42 sequences.

The target in this assay is T1, OsSMF1 (Oryza sativa, UniProt Q6ZLB0 1-436).
T1 sequence: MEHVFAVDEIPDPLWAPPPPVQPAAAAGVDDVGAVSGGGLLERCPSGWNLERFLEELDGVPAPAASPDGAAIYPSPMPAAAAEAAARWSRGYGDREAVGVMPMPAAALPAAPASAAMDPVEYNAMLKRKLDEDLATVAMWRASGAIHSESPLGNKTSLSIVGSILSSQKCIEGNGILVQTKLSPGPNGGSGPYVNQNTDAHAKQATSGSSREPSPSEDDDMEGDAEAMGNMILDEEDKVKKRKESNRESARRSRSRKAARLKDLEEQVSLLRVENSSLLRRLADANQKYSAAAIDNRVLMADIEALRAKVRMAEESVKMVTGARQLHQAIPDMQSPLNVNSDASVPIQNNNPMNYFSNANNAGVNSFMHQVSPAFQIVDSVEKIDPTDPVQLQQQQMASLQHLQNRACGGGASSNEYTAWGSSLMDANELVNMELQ
In words: protein-binding microarray (RPBM); PBS, 2% BSA, 51.3 ng/ul salmon testes DNA, 50 uM zinc acetate, 200 nM TF, 25 C, 1 h; high values mean tight binding. The settings on record: protein: recombinant; tags: N-terminal polyhistidine and DsRed monomer fusion (pET32a); chain copies: 2; label: CyDye5-dUTP incorporated in the synthesized complementary strand; 3' TTTTT single-stranded linker to array surface; dsDNA, one strand shown. In short, it runs like this:
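The binding signal is fluorescence intensity per array feature (arbitrary units). Readings came from an Axon 4000B scanner after a washed, 2% BSA-blocked, double-stranded custom Agilent array had been incubated for 1 h at 25 °C with 200 nM protein and 50 µM zinc acetate. The protein was a Ni–NTA-purified transcription factor fused N-terminally to polyhistidine and DsRed, expressed in E. coli BL21-CodonPlus.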
Consider “AATTGTTTATTACGACTGTTGTGACTGTGCTTTACACCCCCGGAGTCACCTAGTGCAG”, for which the binding signal is 4580 fluorescence intensity (a.u.). With “ATTAGGGGATTGCTGACCGTGTTTGTCTTGGGTTGTTGCCCGGAGTCACCTAGTGCAG”, the binding signal was 4770 fluorescence intensity (a.u.). For “AAATCACGTCATTGTATTGTGTTTTGAAGCTTGTTTGATCCGGAGTCACCTAGTGCAG”, the binding signal was 3250 fluorescence intensity (a.u.). For “CGGCGGCGGCGGCATTGGTCTGCGTCGCCGTGGTGAATTCCGGAGTCACCTAGTGCAG”, the binding signal is 3630 fluorescence intensity (a.u.). Next, “ATTGGAGTCTGCTCCACGCCACATGGATCCTATAAATTCCCGGAGTCACCTAGTGCAG”: 3360 fluorescence intensity (a.u.); “CGGTCCCTAAACTTGTAGGGCTATGTCATCTAGGTCCCAACGGAGTCACCTAGTGCAG”: 3380 fluorescence intensity (a.u.); “AAGCACACCACGAGCGCCCCACGTGGTCAGTGGTCGGCCTCGGAGTCACCTAGTGCAG”: 6610 fluorescence intensity (a.u.). As for “AGGAGAGTGGTGGAGGAGAGGAAGAATAGAAATGCCACTTCGGAGTCACCTAGTGCAG”, the figure is 3600 fluorescence intensity (a.u.). Next, “TCTTGTGCTGAAGTGTCATGGATGACGTACTCCACAACTACGGAGTCACCTAGTGCAG”: 9340 fluorescence intensity (a.u.). In the case of “GATGGGTATACTAGAGGGGAGGAGGAGGAGGACGAGGACACGGAGTCACCTAGTGCAG”, the binding signal was 3210 fluorescence intensity (a.u.). As for “ATTAGGACCCAACTTGAATGTTATGAATGACTGTTCACTGCGGAGTCACCTAGTGCAG”, the figure is 4430 fluorescence intensity (a.u.); as for “CCATATATATACTGACATTCAATACTTACAACGTGTCCGACGGAGTCACCTAGTGCAG”, 3210 fluorescence intensity (a.u.); as for “CGCCACTTGGCGGTTTAGGAGCGTTTGTAGGAAGTTTCATCGGAGTCACCTAGTGCAG”, 3210 fluorescence intensity (a.u.). Next, “CTTCTGGCCCGAAAGATATTTGCTGACTCAAGTACCTCAGCGGAGTCACCTAGTGCAG”: 10300 fluorescence intensity (a.u.); “TGAATTCGTAGCCTGCACGTGATGCACAGCGTGCTGAAGACGGAGTCACCTAGTGCAG”: 3190 fluorescence intensity (a.u.); “ACAAGTACTTAATGATTAAAATGTGCATGTGCCGAGTATACGGAGTCACCTAGTGCAG”: 37300 fluorescence intensity (a.u.). On to “ACCGTTTGCATGGATGCATGAGAAACAGCTCATCCCTATTCGGAGTCACCTAGTGCAG”, for which the binding signal is 3930 fluorescence intensity (a.u.). As for “AGGATTGTTGACATGTCCTTTGTTTTAGACTGGGCAGTGTCGGAGTCACCTAGTGCAG”, the binding signal is 3650 fluorescence intensity (a.u.).

With “ATGCATGAGTCACTCACCGCTCAGCAGGTCTTCGTCACTGCGGAGTCACCTAGTGCAG”, the binding signal is 10100 fluorescence intensity (a.u.). Next, “TGTGACACATGTTACACATAATTATTATGTGAGTGGTAAACGGAGTCACCTAGTGCAG”: 4020 fluorescence intensity (a.u.); “ACCCTGACCTGACATGGAATATGCCCTAGTATATGTTGTTCGGAGTCACCTAGTGCAG”: 4960 fluorescence intensity (a.u.); “ATCTCGGATAGCGTCCACGTGAATAAGCTTGAGCTCGATTCGGAGTCACCTAGTGCAG”: 3620 fluorescence intensity (a.u.). Turning to “AGATAAATATAATAACCTTGTGATAACCATGCGGTTTGGTCGGAGTCACCTAGTGCAG”, the binding signal is 3590 fluorescence intensity (a.u.). Next, “CAGTGCCCTTTCCCCACATCAGCTGTCCGATCCGGCAGTCCGGAGTCACCTAGTGCAG”: 4360 fluorescence intensity (a.u.); “CCCTTATGATTTCTAGATCGTAGTGTGTTGCCTTGTTAAACGGAGTCACCTAGTGCAG”: 3480 fluorescence intensity (a.u.). Take “TGTAACAATGTTTAATGATCAATAAAGCTAGCCGAATGGTCGGAGTCACCTAGTGCAG”: the binding signal is 3280 fluorescence intensity (a.u.). As for “CGCAAACAGCAAGCAGCGTTGCCGGCCTTGGCTTGGCTGGCGGAGTCACCTAGTGCAG”, the figure is 3360 fluorescence intensity (a.u.). “AAGGAATCTGGACGCCACCCCACCACACCACCACTACCCCCGGAGTCACCTAGTGCAG”: the binding signal is 3790 fluorescence intensity (a.u.). Take “CCAGCCGCGCCACCGCTCCCTCGCTGACCTGCCCGTGTTCCGGAGTCACCTAGTGCAG”: the binding signal was 3350 fluorescence intensity (a.u.). As for “ATGTGCAAATTTCTCTTGATGATGACAGTTCAAAGGATGACGGAGTCACCTAGTGCAG”, the figure is 3390 fluorescence intensity (a.u.); as for “TATTTGTTGCTTAGTGCCTCCATCATGTTTACTGGTTGGTCGGAGTCACCTAGTGCAG”, 3380 fluorescence intensity (a.u.); as for “AGCTTCATAGGAAAACTTCCCTAAAGATTTAAATCTTATGCGGAGTCACCTAGTGCAG”, 3280 fluorescence intensity (a.u.). As for “AGTTAGCATTGTGATGTGGCACATCTAATCTCATCTCTCTCGGAGTCACCTAGTGCAG”, the figure is 7510 fluorescence intensity (a.u.); as for “ACCGACCCTTCCGACCGGTTCTTCCGGTGCCACGCACTCACGGAGTCACCTAGTGCAG”, 4520 fluorescence intensity (a.u.). Next, “ATTCTGGCTGACCCTTGGGTGAGTCACAATAGATGTGTATCGGAGTCACCTAGTGCAG”: 13800 fluorescence intensity (a.u.). Consider “ATGATGCTTCAAGAAGGTCATGACGCTCTTATTTGTGTTGCGGAGTCACCTAGTGCAG”, for which the binding signal is 3560 fluorescence intensity (a.u.).

On to “CTAGTTTGAACCGTTACCCATCAGTCTATAAGCAGCACAACGGAGTCACCTAGTGCAG”, for which the binding signal is 4920 fluorescence intensity (a.u.).

On to “ATCACGGAGGAGGCGTTCGGGGAGGGAGGGTGGGGCGCGCCGGAGTCACCTAGTGCAG”, for which the binding signal was 5770 fluorescence intensity (a.u.). On to “GCGTGCGCCACCGATGACGCAGTCACTCGGCTAACACGCGCGGAGTCACCTAGTGCAG”, for which the binding signal is 5750 fluorescence intensity (a.u.). In the case of “CACGGGGTGGTCGCGGGTCACAGTGACGGACGGTGCACGGCGGAGTCACCTAGTGCAG”, the binding signal was 20200 fluorescence intensity (a.u.).

Regarding “CGGCGAGGCGAACTCAACGGGTACGCAAAGCGAAGAGGAGCGGAGTCACCTAGTGCAG”, the binding signal is 45600 fluorescence intensity (a.u.). Consider “GAAATTTCATCACCATGGGAACGGTGACGCGGATGTAACCCGGAGTCACCTAGTGCAG”, for which the binding signal was 6090 fluorescence intensity (a.u.).
